Results published in article PMC12028738 (Marine Drugs, 2025).
No constants are given. Whether binding was seen depends on the method and setting. Some entries that bind do so weakly or less than the wild type.

The chains behind the UniProt entries cited, without tags or fusion partners. Residues count along the entry.
UniProt Q9NZQ7, residues 18-239: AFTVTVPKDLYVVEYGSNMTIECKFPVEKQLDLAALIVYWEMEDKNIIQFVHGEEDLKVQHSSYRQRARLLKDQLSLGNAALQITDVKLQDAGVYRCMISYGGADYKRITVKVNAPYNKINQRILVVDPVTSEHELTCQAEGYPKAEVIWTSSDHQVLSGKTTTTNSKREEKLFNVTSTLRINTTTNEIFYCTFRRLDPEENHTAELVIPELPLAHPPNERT

These binders were tested against recombinant human PD-L1 (residue 18–239, extracellular domain) (human) (UniProt Q9NZQ7) (assay: affinity ultrafiltration (AUF) with nanoLC-MS/MS; 100 µL enzymatic hydrolysate at 50 mg/mL incubated with 100 µL of 50 µg/mL PD-L1 at 37 °C for 90 min under shaking; 10 kDa cut-off membrane, washed 3 times with DPBS; binders released with 90% methanol and 30 min sonication; identified by nanoLC-MS/MS; only the target purified).
With PGAGGKSSTYGR [C10] the binding was “binds”.
For LLDPEDIVVERPDEK [C11], the binding was “binds”.
In the case of FVDHIMDDQVVEDLTIK [C12], the binding is reported as “binds”.
For HLDIPQMLDAQELVDMAKPDER [C13], the binding was “binds”.
For DYEEAVMQNDATVGQLK [C14], the binding was “binds”.
For SNAVGITWSPVEGAEK [C15], the binding was “binds”.
With VSYEESIEQLEIVK [C16] the binding was “binds”.
With KDLYANTVLSGGSTMFPGIADR [C2] the binding was “binds”.
LEMQEIQLTEAK [C24] was tested, and the binding was “binds”.
With TVTFEEFLPMLAQIK [C3] the binding was “binds”.
For TTNVVVADLSESK [C30], the binding was “binds”.
KKDEEEIEELR [C31] was tested, and the binding was “binds”.
For AGVLADLEDK [C32], the binding was “binds”.
With EILQGESNVQEVK [C33] the binding was “binds”.
IEDLSGGELQR [C34] was tested, and the binding was “binds”.
For EILIEDEGELK [C35], the binding was “binds”.
With SELDDELGR [C36] the binding was “binds”.
For DGFIDKEDLK [C37], the binding was “binds”.
TSLEEQLEEEEESR [C38] was tested, and the binding was “binds”.
For IVPPEDGDDEK [C39], the binding was “binds”.
AGFAGDDAPRAVFPSIVGRPR [C4] was tested, and the binding was “binds”.
In the case of EGIFEEEIK [C40], the binding is reported as “binds”.
For DAEEIEKDEQVAAEK [C41], the binding was “binds”.
With AEQAEADKK [C42] the binding was “binds”.
FLEIFTQR [S1] was tested, and the binding was “binds”.
In the case of AFILPEGVSAER [S3], the binding is reported as “binds”.
VWLDPNETSMISNANSR [S4] was tested, and the binding was “binds”.
VDTLMVRNNLR [S5] was tested, and the binding was “binds”.
VAPEEHPVLLTEAPLNPKANR [S6] was tested, and the binding was “binds”.
For AVMSLQMEMQQIMK [S7], the binding was “binds”.
For GYEEWLISEMR [S8], the binding was “binds”.
With TVQTLNLEIDSMR [S9] the binding was “binds”.
VLGSGTNLDSAR [S10] was tested, and the binding was “binds”.
For FTGMLSMLDDPEPFAR [S11], the binding was “binds”.
In the case of EELDMEHRRSK [S12], the binding is reported as “binds”.
With DGILQIDAPVAVAIDNK [S13] the binding was “binds”.
In the case of MTEQWMK [S14], the binding is reported as “binds”.
With LVMVEAELERGEER [S15] the binding was “binds”.
In the case of LLEAQIATGGLIDPR [S16], the binding is reported as “binds”.
With KLETLQEELELLK [S17] the binding was “binds”.
In the case of QYEDMFGEDLVDR [C6], the binding is reported as “binds”.
For ANAEVANWR [S19], the binding was “binds”.
In the case of MAGTSDCVKR [S20], the binding is reported as “binds”.
With LSGGDIESYLLEK [S21] the binding was “binds”.
For NIKEGDIVKR [S22], the binding was “binds”.
With VVSQTEDVR [S23] the binding was “binds”.
With EDDVQQMNPPK [S24] the binding was “binds”.
QVNMANHLSKDSR [C7] was tested, and the binding was “binds”.
With PLAIDLLHPSPEEEK [C8] the binding was “binds”.
For ISVDVNIPADAIIGR [C9], the binding was “binds”.
